We go through two molecules from PMC10296241.

Chains of the proteins cited; added tags and fusions are not shown.
UniProt P04608: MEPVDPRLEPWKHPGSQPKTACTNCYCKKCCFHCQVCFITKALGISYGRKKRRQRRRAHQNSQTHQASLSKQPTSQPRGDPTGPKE
UniProt Q92993: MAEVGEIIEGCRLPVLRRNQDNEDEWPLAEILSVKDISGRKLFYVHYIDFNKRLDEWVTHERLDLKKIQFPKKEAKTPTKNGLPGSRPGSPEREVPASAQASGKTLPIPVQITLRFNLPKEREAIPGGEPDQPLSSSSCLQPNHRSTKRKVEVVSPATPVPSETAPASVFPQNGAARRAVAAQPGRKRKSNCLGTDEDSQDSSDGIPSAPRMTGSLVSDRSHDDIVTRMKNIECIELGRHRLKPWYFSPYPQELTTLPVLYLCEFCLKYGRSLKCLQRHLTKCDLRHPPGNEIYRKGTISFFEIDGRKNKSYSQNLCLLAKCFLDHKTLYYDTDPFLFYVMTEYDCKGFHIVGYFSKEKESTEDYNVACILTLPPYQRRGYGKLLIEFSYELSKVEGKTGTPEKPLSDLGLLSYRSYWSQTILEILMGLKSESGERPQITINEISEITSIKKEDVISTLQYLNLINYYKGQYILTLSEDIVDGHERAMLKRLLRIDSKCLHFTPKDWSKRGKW

These are yes or no findings as the source states them, for the method shown. In cells and extracts the contact can be indirect. Some binding calls cover weakened binding; strength is not graded here.

For this test, the target named is HIV-1 Tat transcriptional activator (HIV-1) (UniProt P04608). In words: co-IP; J-Lat cells cultured with (P/I) or without (CM) mitogens for 6 h; whole extracts in RIPA buffer (50 mM Tris-HCl pH 7.4, 150 mM NaCl, 1% Triton X-100, 1% sodium deoxycholate, 0.1% SDS, 1 mM EDTA); immunoprecipitation with rabbit polyclonal anti-Tat (ab43014) on magnetic protein G beads; Western blot for NFAT2 or Tip60.

Take Tip60 (from UniProt Q92993 1-513): the binding result is recorded as “binds”.

B1: NFAT2 (protein, UniProt O95644 1-943)
chain: MPSTSFPVPSKFPLGPAAAVFGRGETLGPAPRAGGTMKSAEEEHYGYASSNVSPALPLPTAHSTLPAPCHNLQTSTPGIIPPADHPSGYGAALDGGPAGYFLSSGHTRPDGAPALESPRIEITSCLGLYHNNNQFFHDVEVEDVLPSSKRSPSTATLSLPSLEAYRDPSCLSPASSLSSRSCNSEASSYESNYSYPYASPQTSPWQSPCVSPKTTDPEEGFPRGLGACTLLGSPRHSPSTSPRASVTEESWLGARSSRPASPCNKRKYSLNGRQPPYSPHHSPTPSPHGSPRVSVTDDSWLGNTTQYTSSAIVAAINALTTDSSLDLGDGVPVKSRKTTLEQPPSVALKVEPVGEDLGSPPPPADFAPEDYSSFQHIRKGGFCDQYLAVPQHPYQWAKPKPLSPTSYMSPTLPALDWQLPSHSGPYELRIEVQPKSHHRAHYETEGSRGAVKASAGGHPIVQLHGYLENEPLMLQLFIGTADDRLLRPHAFYQVHRITGKTVSTTSHEAILSNTKVLEIPLLPENSMRAVIDCAGILKLRNSDIELRKGETDIGRKNTRVRLVFRVHVPQPSGRTLSLQVASNPIECSQRSAQELPLVEKQSTDSYPVVGGKKMVLSGHNFLQDSKVIFVEKAPDGHHVWEMEAKTDRDLCKPNSLVVEIPPFRNQRITSPVHVSFYVCNGKRKRSQYQRFTYLPANVPIIKTEPTDDYEPAPTCGPVSQGLSPLPRPYYSQQLAMPPDPSSCLVAGFPPCPQRSTLMPAAPGVSPKLHDLSPAAYTKGVASPGHCHLGLPQPAGEAPAVQDVPRPVATHPGSPGQPPPALLPQQVSAPPSSSCPPGLEHSLCPSSPSPPLPPATQEPTCLQPCSPACPPATGRPQHLPSTVRRDESPTAGPRLLPEVHEDGSPNLAPIPVTVKREPEELDQLYLDDVNEIIRNDLSSTSTHS
Turning to B1, the binding result is recorded as “no binding”.
